This is an account of results in patent US8962646B2, “Peripherally acting opioid compounds” (Alkermes, Inc., priority 2011, dated 2015).

For this test, the system named is acetic acid induced writhing. The experiment in a line: Acetic-acid induced writhing model of inflammatory pain. It counts as in vivo. The settings on record: mice, intraperitoneal, 1% acetic acid. As for the experimental part: The number of writhes was counted for 15 minutes (3 consecutive 5 minute time bins). […] “Normal” posture was defined as movements opposite to those listed above (e.g. convex curvature of the spine, legs not extended, abdomen not lowered, tail in a straight or relaxed position, etc).
The total number of writhes over the 15 minute test session was used for all data analysis. All data was transformed using GraphPad Prism to % change from daily vehicle control for analysis based on the number of writhes produced by the saline vehicle control group (% change=# writhes in test group/mean # of writhes in daily vehicle control group*100).

For the compound `CN1CC[C@]23c4c5ccc(O)c4O[C@H]2[C@@H](O)C=CC3C1C5` (some centres unmarked) [A, morphine, reference compound], the “Effect on acetic acid induced writhing” value was “dose-dependently blocks writhing”. This compound also returned an ED50 (Mus musculus, ip) of 0.25 mg/kg.
